Data as given in PubChem BioAssay AID1259424 (University of Nebraska Medical Center, 2018).

- Test: 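Rank knockdowns across the genome by resemblance to the KSR1 depletion profile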 (primary screen)
- System: human HCT116 colon cancer cells
- Reagent: siRNA pool against human genes, 50 nM
- Detection: 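Six signature mRNAs by branched-DNA multiplex assay, scaled to two housekeeping genes and non-targeting median, log2; matched to mean KSR1 knockdown profile by Pearson correlation and euclidean distance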
- Direction: mean correlation with KSR1 profile and KSR1 correlation: higher = expression change more like KSR1 knockdown; mean distance from KSR1 profile: higher = expression change less like KSR1 knockdown
The whole screen tested about 14,000 reagents; below is a part drawn at random. 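Higher correlation or smaller distance means closer resemblance to KSR1 loss; control wells, including KSR1 knockdowns, recur on many plates.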 The record does not give: the time to read-out.

gene knocked down	mean correlation with KSR1 profile	mean distance from KSR1 profile	KSR1 correlation, replicate 1	KSR1 correlation, replicate 2	KSR1 correlation, replicate 3
PRPF6 (pre-mRNA processing factor 6)	-0.574	3.37	-0.0801	-0.734	-0.654
TCL6 (T cell leukemia/lymphoma 6)	0.0374	1.69	0.0592	-0.327	-0.329
FCGR2B (Fc gamma receptor IIb)	0.414	1.97	0.312	0.367	0.512
LAT (linker for activation of T cells)	-0.145	3.14	-0.118	-0.112	-0.304
SSX4 (SSX family member 4)	-0.235	2.49	-0.276	-0.379	-0.175
PRKAB1 (protein kinase AMP-activated non-catalytic subunit beta 1)	-0.103	4.8	-0.24	-0.36	0.111
OR12D3 (olfactory receptor family 12 subfamily D member 3)	0.622	2.26	0.701	0.597	0.627
GALNT5 (polypeptide N-acetylgalactosaminyltransferase 5)	0.0467	1.05	0.0756	0.00381	0.129
TUBB6 (tubulin beta 6 class V)	0.631	1.13	0.558	0.755	0.434
RAF1 (Raf-1 proto-oncogene, serine/threonine kinase)	0.252	2.39	0.604	0.379	-0.582
CD59 (CD59 molecule (CD59 blood group))	-0.0438	1.61	-0.125	0.0152	-0.217
TMEM165 (transmembrane protein 165)	-0.562	3.81	-0.406	-0.421	-0.764
FOXJ3 (forkhead box J3)	-0.223	1.71	-0.214	-0.374	-0.0663
TIAL1 (TIA1 cytotoxic granule associated RNA binding protein like 1)	0.559	2.13	0.751	0.535	0.484
OTOR (otoraplin)	-0.343	3.04	-0.31	-0.461	-0.263
C8G (complement C8 gamma chain)	0.274	1.99	0.234	0.335	0.0951
DNAJB6 (DnaJ heat shock protein family (Hsp40) member B6)	-0.152	2.36	-0.159	-0.124	-0.0875
SKI (SKI proto-oncogene)	-0.316	1.96	-0.292	-0.431	-0.183
TOX2 (TOX high mobility group box family member 2)	0.712	2.4	0.604	0.675	0.659
PRRC2A (proline rich coiled-coil 2A)	0.444	3.73	0.208	0.418	0.00935
LZTR1 (leucine zipper like post translational regulator 1)	-0.142	5.39	-0.159	-0.113	-0.138
KERA (keratocan)	-0.519	2.51	-0.587	-0.623	-0.523
CARS2 (cysteinyl-tRNA synthetase 2, mitochondrial)	0.952	0.53	0.96	0.941	0.857
BRCA2 (BRCA2 DNA repair associated)	0.66	1.04	0.485	0.134	0.736
KCNN4 (potassium calcium-activated channel subfamily N member 4)	0.57	1.46	0.513	0.632	0.572
SUGCT (succinyl-CoA:glutarate-CoA transferase)	0.608	2.22	0.63	0.696	0.519
EMX1 (empty spiracles homeobox 1)	0.0817	2.61	0.43	0.213	0.0152
ALMS1 (ALMS1 centrosome and basal body associated protein)	-0.676	2.97	-0.815	-0.795	-0.513
CDKN1A (cyclin dependent kinase inhibitor 1A)	0.946	0.863	0.93	0.769	0.646
TRHR (thyrotropin releasing hormone receptor)	0.0657	2.66	0.0598	0.237	0.0538
MRPL51 (mitochondrial ribosomal protein L51)	-0.307	1.45	-0.428	-0.159	-0.0894
DLX4 (distal-less homeobox 4)	-0.563	2.62	-0.305	-0.0623	-0.695
RYR2 (ryanodine receptor 2)	-0.785	1.99	-0.323	-0.721	-0.903
RPL21 (ribosomal protein L21)	-0.212	3.38	-0.481	-0.368	0.558
LAD1 (ladinin 1)	0.399	2.66	0.368	0.346	0.439
BTF3 (basic transcription factor 3)	-0.799	2.37	-0.851	-0.624	-0.816
NCAPG2 (non-SMC condensin II complex subunit G2)	-0.4	3.28	0.237	-0.0938	-0.415
MRPS25 (mitochondrial ribosomal protein S25)	-0.408	3.16	-0.447	-0.468	-0.562
STAT6 (signal transducer and activator of transcription 6)	-0.626	3.62	-0.539	-0.581	-0.754
NEK8 (NIMA related kinase 8)	0.236	2.86	0.368	0.162	0.136
PTCRA (pre T cell antigen receptor alpha)	-0.226	1.93	-0.442	-0.463	-0.0809
ADAMTS12 (ADAM metallopeptidase with thrombospondin type 1 motif 12)	-0.0673	2.15	-0.0733	0.0634	-0.382
FBP2 (fructose-bisphosphatase 2)	0.192	1.27	0.269	0.568	-0.171
PRDM15 (PR/SET domain 15)	0.16	2.29	0.231	0.00498	0.135
ERCC8 (ERCC excision repair 8, CSA ubiquitin ligase complex subunit)	0.127	1.96	0.17	0.437	0.0442
RNF123 (ring finger protein 123)	-0.377	4.4	-0.339	-0.339	-0.295
ABCB8 (ATP binding cassette subfamily B member 8)	-0.384	1.72	-0.029	-0.173	-0.293
ZCCHC10 (zinc finger CCHC-type containing 10)	0.184	2.56	0.286	-0.0412	-0.273
ODC1 (ornithine decarboxylase 1)	0.25	1.98	0.305	0.198	0.192
KIN (Kin17 DNA and RNA binding protein)	0.837	1.33	0.747	0.823	0.772
MXD1 (MAX dimerization protein 1)	0.265	2.31	0.609	0.369	-0.0246
ADGRF5 (adhesion G protein-coupled receptor F5)	0.565	1.54	0.46	0.735	0.202
UBAP2L (ubiquitin associated protein 2 like)	0.0333	2.5	-0.0106	-0.249	0.382
ALAD (aminolevulinate dehydratase)	-0.467	3.88	-0.565	-0.295	-0.391
RPS21 (ribosomal protein S21)	-0.686	1.76	-0.275	-0.776	-0.66
HECW2	-0.876	4.37	-0.835	-0.742	-0.752
IGF2BP2 (insulin like growth factor 2 mRNA binding protein 2)	0.594	4.46	0.572	0.716	0.0331
ZNF331 (zinc finger protein 331)	-0.102	1.64	-0.207	-0.528	0.486
CSN2 (casein beta)	0.471	4.35	0.653	0.388	0.238
ARID1A (AT-rich interaction domain 1A)	-0.176	1.78	0.268	0.0017	-0.258
SMC3 (structural maintenance of chromosomes 3)	-0.431	1.95	-0.239	-0.314	-0.455
MORC1 (MORC family CW-type zinc finger 1)	-0.25	1.93	-0.361	-0.509	-0.311
PGAP2 (post-GPI attachment to proteins 2)	-0.253	2.26	-0.274	-0.232	-0.423
